Measured values taken from publication PMC2654099.
No constants are given. Whether binding was seen depends on the method and setting. For some of these results: In cells and extracts the contact can be indirect. Some results given as binding are weak or reduced against the parent protein; the word gives no strength. For some of these results: Sequences can lack the tags named with a protein.

The chains behind the UniProt entries cited, without tags or fusion partners. Where a name states a change or a piece, a line headed by the entry shows the natural chain unless it says otherwise. A line that says so, or that is headed by a name, gives the form on record, which may keep a tag or linker.
PP1γ2, endogenous in cauda epididymal sperm (P63087-2, form named): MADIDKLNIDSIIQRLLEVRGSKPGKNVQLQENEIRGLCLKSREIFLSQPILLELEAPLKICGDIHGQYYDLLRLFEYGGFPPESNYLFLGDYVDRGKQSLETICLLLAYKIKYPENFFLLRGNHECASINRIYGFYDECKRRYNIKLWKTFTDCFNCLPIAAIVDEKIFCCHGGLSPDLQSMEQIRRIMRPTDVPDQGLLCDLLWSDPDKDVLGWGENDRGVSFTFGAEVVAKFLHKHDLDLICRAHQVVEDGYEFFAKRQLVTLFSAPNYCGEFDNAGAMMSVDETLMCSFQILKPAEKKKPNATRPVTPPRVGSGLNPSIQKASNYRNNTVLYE

Experiments:
[1] = molecular target: T1, Sds22 (protein phosphatase 1 regulatory subunit 7, PPP1R7), endogenous in mouse testis (mouse (endogenous in testis)) (UniProt Q3UM45); experiment: co-IP; Superose 6 fractions (C4 and C5) of mouse testis extracts, anti-PPP1R11, anti-PP1γ2 or anti-Sds22 (preimmune serum as control) on Protein G-Sepharose 4 beads; western blot
T1 sequence: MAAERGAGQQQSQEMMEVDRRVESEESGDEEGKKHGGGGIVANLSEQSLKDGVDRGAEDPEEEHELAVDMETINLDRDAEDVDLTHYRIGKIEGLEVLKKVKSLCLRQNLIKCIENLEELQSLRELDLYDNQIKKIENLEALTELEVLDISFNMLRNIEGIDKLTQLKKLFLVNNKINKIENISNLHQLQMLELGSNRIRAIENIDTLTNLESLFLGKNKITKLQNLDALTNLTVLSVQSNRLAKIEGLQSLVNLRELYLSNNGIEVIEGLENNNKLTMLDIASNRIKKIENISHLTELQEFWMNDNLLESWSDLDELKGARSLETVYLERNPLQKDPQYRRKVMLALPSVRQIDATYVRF

[2] = molecular target: T2, PPP1R11 (protein phosphatase 1 regulatory subunit 11), endogenous in mouse testis (mouse (endogenous in testis)) (UniProt Q8K1L5); experiment: as above
T2 sequence: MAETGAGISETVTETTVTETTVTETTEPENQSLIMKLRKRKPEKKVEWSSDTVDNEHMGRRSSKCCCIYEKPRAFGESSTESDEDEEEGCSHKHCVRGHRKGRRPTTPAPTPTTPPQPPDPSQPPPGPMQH

[3] = molecular target: T2, PPP1R11 (protein phosphatase 1 regulatory subunit 11), endogenous in mouse testis (mouse (endogenous in testis)); experiment: native gel or EMSA; Superose 6 fractions C4 and C5 of mouse testis proteins separated by native PAGE (10% Tris-HCl gel); replicate blot strips probed with anti-PPP1R11, anti-PP1γ2 or anti-Sds22
[4] = molecular target: T1, Sds22 (protein phosphatase 1 regulatory subunit 7, PPP1R7), endogenous in mouse testis (mouse (endogenous in testis)); experiment: co-IP; mouse testis fractions purified by DEAE-, MonoQ- and Superdex 200-column chromatography, immunoprecipitated with anti-actin, anti-PPP1R11, anti-Sds22 or anti-PP1γ2; western blot
[5] = molecular target: T2, PPP1R11 (protein phosphatase 1 regulatory subunit 11), endogenous in mouse testis (mouse (endogenous in testis)); experiment: as above
[6] = molecular target: T2, PPP1R11 (protein phosphatase 1 regulatory subunit 11), endogenous in mouse testis (mouse (endogenous in testis)); experiment: SEC; mouse testis extracts fractionated in series by DEAE, MonoQ and Superose 6 columns; fractions analysed by western blot
[7] = molecular target: T3, GST-tagged recombinant PPP1R11 (mouse) (UniProt Q8K1L5); experiment: pull-down; GST-PPP1R11 or GST alone on Glutathione Sepharose 4B beads incubated with mouse testis extracts, 2 h at 4°C; eluted with 20 mM reduced glutathione, 50 mM Tris, pH 8.0; western blot; only the target purified
T3 sequence: T2 sequence

[8] = molecular target: T2, PPP1R11 (protein phosphatase 1 regulatory subunit 11), endogenous in mouse testis (mouse (endogenous in testis)); experiment: co-IP; crude mouse testis extracts, anti-PP1γ2 or anti-PPP1R11 (preimmune serum as control) on Protein G-Sepharose 4 beads, 4°C; western blot
[9] = molecular target: PP1γ2 (protein phosphatase 1 gamma 2 isoform), endogenous in mouse testis (mouse (endogenous in testis)) (UniProt P63087); experiment: co-IP; Superose 6 fractions (C4 and C5) of mouse testis extracts, anti-PPP1R11, anti-PP1γ2 or anti-Sds22 (preimmune serum as control) on Protein G-Sepharose 4 beads; western blot
[10] = molecular target: PP1γ2 (protein phosphatase 1 gamma 2 isoform), endogenous in mouse testis (mouse (endogenous in testis)) (UniProt P63087); experiment: native gel or EMSA; Superdex 200 fraction of mouse testis proteins on a non-denaturing gel; Coomassie band matching the common immunoreactive band excised and microsequenced after in-gel proteolysis (data not shown)
[11] = molecular target: PP1γ2 (protein phosphatase 1 gamma 2 isoform), endogenous in mouse testis (mouse (endogenous in testis)) (UniProt P63087); experiment: native gel or EMSA; Superose 6 fractions C4 and C5 of mouse testis proteins separated by native PAGE (10% Tris-HCl gel); replicate blot strips probed with anti-PPP1R11, anti-PP1γ2 or anti-Sds22
[12] = molecular target: PP1γ2 (protein phosphatase 1 gamma 2 isoform), endogenous in mouse testis (mouse (endogenous in testis)) (UniProt P63087); experiment: co-IP; mouse testis fractions purified by DEAE-, MonoQ- and Superdex 200-column chromatography, immunoprecipitated with anti-actin, anti-PPP1R11, anti-Sds22 or anti-PP1γ2; western blot
[13] = molecular target: PP1γ2 (protein phosphatase 1 gamma 2 isoform), endogenous in mouse testis (mouse (endogenous in testis)) (UniProt P63087); experiment: SEC; mouse testis extracts fractionated in series by DEAE, MonoQ and Superose 6 columns; fractions analysed by western blot
[14] = molecular target: PP1γ2 (protein phosphatase 1 gamma 2 isoform), endogenous in mouse testis (mouse (endogenous in testis)) (UniProt P63087); experiment: co-IP; crude mouse testis extracts, anti-PP1γ2 or anti-PPP1R11 (preimmune serum as control) on Protein G-Sepharose 4 beads, 4°C; western blot
[15] = molecular target: PP1γ2, endogenous in cauda epididymal sperm (UniProt P63087); experiment: SEC; cauda sperm protein extracts fractionated by DEAE, MonoQ and Superose 6; fractions immunoblotted with anti-Sds22, anti-PP1γ2, anti-PPP1R11, anti-PP2A and anti-actin

Measured: binding

PP1γ2 (protein phosphatase 1 gamma 2 isoform), endogenous in mouse testis (from UniProt P63087-2 1-337) (enzyme)
binds: [1] | [2] | [3] | [4] | [5] | [6] | [7] | [8]

B1: Sds22 (protein phosphatase 1 regulatory subunit 7, PPP1R7), endogenous in mouse testis (protein, UniProt Q3UM45 1-361)
chain: T1 sequence
not listed: [1] | [4] | [15]
binds: all other assays above

B2: Sds22, endogenous in cauda epididymal sperm (protein, UniProt Q3UM45 1-361)
chain: T1 sequence
binds: [15]

B3: PPP1R11 (protein phosphatase 1 regulatory subunit 11), endogenous in mouse testis (protein, UniProt Q8K1L5 1-131)
chain: T2 sequence
binds: [1] | [9] | [10] | [4] | [12] | [14]

B4: PPP1R11, endogenous in cauda epididymal sperm (protein, UniProt Q8K1L5 1-131)
chain: T2 sequence
binds: [15]
